Measurements as given in US20250099420A1, “SMALL MOLECULE MODULATORS OF GPR139 COMPLEX” (University of Florida Research Foundation, Incorporated, priority 2022, published 2025).

The compounds below were run on parental HEK cells (assay: HEK parental Antagonist Counterscreen Assay (non-transfected cells, acetylcholine control)).
Type: cell-based

SMILES	HEK antagonist activity Hill Slope
O=c1c(-c2ccc(Cl)cc2)c(C(F)(F)F)oc2cc(O)ccc12 [SR-01000438114]	13.82
COc1cccc(OC)c1C(=O)Oc1ccc2c(=O)c(-c3ccc(Cl)cc3)c(C(F)(F)F)oc2c1 [SR-01000471218]	10.22
Cc1cccc(NC(=O)CCC(=O)OCc2ccc(Br)cc2)c1 [SR-01000258561]	14.89
O=C(Nc1ccccc1C(=O)O)c1ccc(Oc2ccc([N+](=O)[O-])cc2)cc1 [SR-01000201144]	8.01
Cc1c(-c2cccc(NC(=O)C3c4ccccc4Oc4ccccc43)c2)nc2ncccn12 [SR-01000907648]	8.81
